Values from PubChem BioAssay AID1053208 (Peter MacCallum Cancer Centre, 2014).
This is one part, drawn at random, of about 17,000 reagents tested. 788 of all reagents (4.7%) were called active. 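Calls rest on z-score classes alone; an extra cut-off of viability at most 70% of control was not applied to them.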 Entries without a mark were called inactive. Further read-outs or replicates are left out here.

Purpose: 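Synthetic lethal interactions between gene loss and doxorubicin in osteosarcoma cells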 (primary screen)
Cell system: mouse osteosarcoma cells, early-passage culture from an engineered mouse model of fibroblastic bone tumour
Reagent: siRNA pool against mouse genes, 40 nM
Time to read-out: about 120 h (48 h before drug, then 72 h with drug)
Conditions: doxorubicin 100 nM for 72 h, roughly 30-40% inhibitory dose
Measurement: 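Luminescent ATP signal taken as viability with or without 100 nM doxorubicin for 72 h; mean of two wells set against non-targeting siRNA and turned into robust z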
Reading the numbers: viability z-score with doxorubicin: higher = more viable cells under doxorubicin; viability z-score without drug: higher = more viable cells with knock-down alone
Call rule: 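Called active if knock-down leaves viability unchanged without drug (z within -2 to 2) but lowers it with doxorubicin (z at or under -2)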

Hdac11 (histone deacetylase 11)
- combined z-score class: no change with or without drug
- viability z-score with doxorubicin: -0.34
- viability z-score without drug: 0.84

Bmp7 (bone morphogenetic protein 7)
- combined z-score class: no change with or without drug
- viability z-score with doxorubicin: -0.45
- viability z-score without drug: 0

Cyp4v3 (cytochrome P450, family 4, subfamily v, polypeptide 3)
- combined z-score class: no change with or without drug
- viability z-score with doxorubicin: -0.11
- viability z-score without drug: 0.34

Mmp3 (matrix metallopeptidase 3)
- combined z-score class: no change with or without drug
- viability z-score with doxorubicin: -0.45
- viability z-score without drug: 1.01

Spry2 (sprouty RTK signaling antagonist 2)
- combined z-score class: no change with or without drug
- viability z-score with doxorubicin: 0.67
- viability z-score without drug: 0.67

Nfatc4
- combined z-score class: no change with or without drug
- viability z-score with doxorubicin: 1.35
- viability z-score without drug: 1.85

Kctd12 (potassium channel tetramerisation domain containing 12)
- combined z-score class: low cell count with doxorubicin only (active)
- viability z-score with doxorubicin: -3.6
- viability z-score without drug: -1.85

Ednra (endothelin receptor type A)
- combined z-score class: no change with or without drug
- viability z-score with doxorubicin: -0.45
- viability z-score without drug: -1.52

Mboat2 (membrane bound O-acyltransferase domain containing 2)
- combined z-score class: no change with or without drug
- viability z-score with doxorubicin: 0
- viability z-score without drug: -0.51

Bkgd (beta-keto-L-gulonate decarboxylase)
- combined z-score class: high cell count without drug only
- viability z-score with doxorubicin: 0.9
- viability z-score without drug: 2.36

Prrx1 (paired related homeobox 1)
- combined z-score class: no change with or without drug
- viability z-score with doxorubicin: -0.22
- viability z-score without drug: -0.51

4930447C04Rik (RIKEN cDNA 4930447C04 gene)
- combined z-score class: high cell count without drug only
- viability z-score with doxorubicin: 0.45
- viability z-score without drug: 3.04

Laid out differently: 2 of the entries above
Spry2 (sprouty RTK signaling antagonist 2) → combined z-score class: no change with or without drug; viability z-score with doxorubicin: 0.67; viability z-score without drug: 0.67
Nfatc4 → combined z-score class: no change with or without drug; viability z-score with doxorubicin: 1.35; viability z-score without drug: 1.85
